Results as given in paper PMC9110426, “Cooperative regulation of PBI1 and MAPKs controls WRKY45 transcription factor in rice immunity”.
No constants are given. Whether binding was seen depends on the method and setting. Binding seen in cells or lysates may run through a third protein. A result given as binding can be weak or reduced; the word gives no strength. For some of these results: Sequences can lack the tags named with a protein.

Protein sequences, listed by entry. Tags and fused reporters are not part of them. Lines headed by an entry give the natural chain unless they say otherwise; changes in a name come on top.
UniProt Q5ZCD5: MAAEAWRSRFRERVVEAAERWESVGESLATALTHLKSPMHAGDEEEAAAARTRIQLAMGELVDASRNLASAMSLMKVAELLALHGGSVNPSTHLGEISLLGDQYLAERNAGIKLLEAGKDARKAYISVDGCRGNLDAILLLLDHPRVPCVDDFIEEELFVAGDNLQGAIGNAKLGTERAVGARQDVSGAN

Key:
[1] = target: PBI1-Vc (rice (Oryza sativa cv. Nipponbare)) (UniProt Q5ZCD5); test: split reporter; BiFC with Venus halves (Vn, Vc) in rice protoplasts; fluorescence microscopy
[2] = target: GFP-PBI1 (rice (Oryza sativa cv. Nipponbare)); test: co-IP; rice protoplasts expressing GFP-PBI1 and Myc-tagged WRKY45; GFP-Trap beads 2 h; 50 mM Tris-HCl pH 7.5, 150 mM NaCl, 10% glycerol, 5 mM DTT, 2% IGEPAL CA-630; blot with α-Myc
GST-PBI1 (rice) = test: pull-down; GST-PBI1 or GST on glutathione Sepharose 4B beads, incubated with wheat germ synthesised HA-WRKY proteins in buffer A (50 mM Tris pH 7.4, 150 mM NaCl, 5 mM EDTA, 5% glycerol, 0.1% Triton X-100) for 12 h at 4 °C; washed three times with buffer A; blot with α-HA; only the target purified
[3] = target: PBI1-LgBiT (rice (Oryza sativa cv. Nipponbare)); test: split reporter; split NanoLuc luciferase complementation in rice protoplasts, 18 h at 30 °C; N-Luc to F-Luc ratio; Fig. 6d with or without co-expressed MKK4^DD
PUB44-LgBiT (rice) = test: as above

B1: WRKY45-Vn (protein, UniProt Q5W6D6 1-326)
chain: MTSSMSPAPAPAYAQVMEDMEKGKELAAQLQGLLRDSPEAGRFVDQILHTFSRAMRALDKAAVSAAGGEGSEVQSEVTCGGGASAGGKRKAPAADRKANCRRRTQQSSGNSVVVKNLDDGQAWRKYGQKEIQNSKHPKAYFRCTHKYDQLCTAQRQVQRCDDDPASYRVTYIGEHTCRDPATAPIIAAHVIHQVAAGDNDDGCGGLQAGSRLISFVAAPAAPVDAAAAPTTSTITTVTAPGPLLQPLKVEGGVGSSDQEEVLSSLTPGSSAARGGGGGGGVAGPFGPDQGDVTSSLHWSYDAVAGMEFFKNDEVVFDLDDIMGLSF
binding [1]: binds

B2: Myc-WRKY45 (in rice protoplasts) (protein, UniProt Q5W6D6 1-326)
chain: MTSSMSPAPAPAYAQVMEDMEKGKELAAQLQGLLRDSPEAGRFVDQILHTFSRAMRALDKAAVSAAGGEGSEVQSEVTCGGGASAGGKRKAPAADRKANCRRRTQQSSGNSVVVKNLDDGQAWRKYGQKEIQNSKHPKAYFRCTHKYDQLCTAQRQVQRCDDDPASYRVTYIGEHTCRDPATAPIIAAHVIHQVAAGDNDDGCGGLQAGSRLISFVAAPAAPVDAAAAPTTSTITTVTAPGPLLQPLKVEGGVGSSDQEEVLSSLTPGSSAARGGGGGGGVAGPFGPDQGDVTSSLHWSYDAVAGMEFFKNDEVVFDLDDIMGLSF
binding [2]: binds

B3: HA-WRKY45 (protein, UniProt Q5W6D6 1-326)
chain: MTSSMSPAPAPAYAQVMEDMEKGKELAAQLQGLLRDSPEAGRFVDQILHTFSRAMRALDKAAVSAAGGEGSEVQSEVTCGGGASAGGKRKAPAADRKANCRRRTQQSSGNSVVVKNLDDGQAWRKYGQKEIQNSKHPKAYFRCTHKYDQLCTAQRQVQRCDDDPASYRVTYIGEHTCRDPATAPIIAAHVIHQVAAGDNDDGCGGLQAGSRLISFVAAPAAPVDAAAAPTTSTITTVTAPGPLLQPLKVEGGVGSSDQEEVLSSLTPGSSAARGGGGGGGVAGPFGPDQGDVTSSLHWSYDAVAGMEFFKNDEVVFDLDDIMGLSF
binding (GST-PBI1 (rice)): binds

B4: WRKY45-SmBiT (protein, UniProt Q5W6D6 1-326)
chain: MTSSMSPAPAPAYAQVMEDMEKGKELAAQLQGLLRDSPEAGRFVDQILHTFSRAMRALDKAAVSAAGGEGSEVQSEVTCGGGASAGGKRKAPAADRKANCRRRTQQSSGNSVVVKNLDDGQAWRKYGQKEIQNSKHPKAYFRCTHKYDQLCTAQRQVQRCDDDPASYRVTYIGEHTCRDPATAPIIAAHVIHQVAAGDNDDGCGGLQAGSRLISFVAAPAAPVDAAAAPTTSTITTVTAPGPLLQPLKVEGGVGSSDQEEVLSSLTPGSSAARGGGGGGGVAGPFGPDQGDVTSSLHWSYDAVAGMEFFKNDEVVFDLDDIMGLSF
binding [3]: binds | binding (PUB44-LgBiT (rice)): binds weakly

B5: WRKY45^175–326-SmBiT (domain or fragment, UniProt Q5W6D6 175-326)
chain: HTCRDPATAPIIAAHVIHQVAAGDNDDGCGGLQAGSRLISFVAAPAAPVDAAAAPTTSTITTVTAPGPLLQPLKVEGGVGSSDQEEVLSSLTPGSSAARGGGGGGGVAGPFGPDQGDVTSSLHWSYDAVAGMEFFKNDEVVFDLDDIMGLSF
binding [3]: binds

B6: WRKY45^DD-SmBiT (protein, UniProt Q5W6D6 1-326)
chain: MTSSMSPAPAPAYAQVMEDMEKGKELAAQLQGLLRDSPEAGRFVDQILHTFSRAMRALDKAAVSAAGGEGSEVQSEVTCGGGASAGGKRKAPAADRKANCRRRTQQSSGNSVVVKNLDDGQAWRKYGQKEIQNSKHPKAYFRCTHKYDQLCTAQRQVQRCDDDPASYRVTYIGEHTCRDPATAPIIAAHVIHQVAAGDNDDGCGGLQAGSRLISFVAAPAAPVDAAAAPTTSTITTVTAPGPLLQPLKVEGGVGSSDQEEVLSSLTPGSSAARGGGGGGGVAGPFGPDQGDVTDSLHWDYDAVAGMEFFKNDEVVFDLDDIMGLSF
binding [3]: binds
